Results from PMC8479045.
Results are given in words; binding and its absence hold for the method and conditions named. For some assays here: In cells and extracts the contact can be indirect. Some results given as binding are weak or reduced against the parent protein; the word gives no strength.

T1: tRNA splicing endonuclease subunit TSEN15 (human) (UniProt Q8WW01)
T1 sequence: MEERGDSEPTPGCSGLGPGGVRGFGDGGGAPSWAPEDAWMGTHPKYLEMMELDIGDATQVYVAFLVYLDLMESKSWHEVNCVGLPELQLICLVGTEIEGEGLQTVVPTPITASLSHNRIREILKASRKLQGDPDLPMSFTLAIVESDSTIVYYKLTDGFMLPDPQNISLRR

T2: TSEN15 co-expressed in HEK293 cells (bait of the pull-down of Fig. 4a) (human) (UniProt Q8WW01)
T2 sequence: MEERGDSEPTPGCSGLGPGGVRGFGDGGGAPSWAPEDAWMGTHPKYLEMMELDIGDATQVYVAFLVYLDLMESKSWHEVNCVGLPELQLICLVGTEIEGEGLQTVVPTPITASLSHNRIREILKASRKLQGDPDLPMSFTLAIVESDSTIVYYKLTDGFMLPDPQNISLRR

B1: TSEN2 Y309C from insect cells (protein, UniProt Q8NCE0 1-465)
chain: MAEAVFHAPKRKRRVYETYESPLPIPFGQDHGPLKEFKIFRAEMINNNVIVRNAEDIEQLYGKGYFGKGILSRSRPSFTISDPKLVAKWKDMKTNMPIITSKRYQHSVEWAAELMRRQGQDESTVRRILKDYTKPLEHPPVKRNEEAQVHDKLNSGMVSNMEGTAGGERPSVVNGDSGKSGGVGDPREPLGCLQEGSGCHPTTESFEKSVREDASPLPHVCCCKQDALILQRGLHHEDGSQHIGLLHPGDRGPDHEYVLVEEAECAMSEREAAPNEELVQRNRLICRRNPYRIFEYLQLSLEEAFFLVCALGCLSIYYEKEPLTIVKLWKAFTVVQPTFRTTYMAYHYFRSKGWVPKVGLKYGTDLLLYRKGPPFYHASYSVIIELVDDHFEGSLRRPLSWKSLAALSRVSVNVSKELMLCYLIKPSTMTDKEMESPECMKRIKVQEVILSRWVSSRERSDQDDL
B2: TSEN34 R58W from insect cells (protein, UniProt Q9BSV6 1-310)
chain: MLVVEVANGRSLVWGAEAVQALRERLGVGGRTVGALPRGPRQNSRLGLPLLLMPEEAWLLAEIGAVTLVSAPRPDSRHHSLALTSFKRQQEESFQEQSALAAEARETRRQELLEKITEGQAAKKQKLEQASGASSSQEAGSSQAAKEDETSDGQASGEQEEAGPSSSQAGPSNGVAPLPRSALLVQLATARPRPVKARPLDWRVQSKDWPHAGRPAHELRYSIYRDLWERGFFLSAAGKFGGDFLVYPGDPLRFHAHYIAQCWAPEDTIPLQDLVAAGRLGTSVRKTLLLCSPQPDGKVVYTSLQWASLQ
B3: TSEN54 S93P from insect cells (protein, UniProt Q7Z6J9 1-526)
chain: MEPEPEPAAVEVPAGRVLSARELFAARSRSQKLPQRSHGPKDFLPDGSAAQAERLRRCREELWQLLAEQRVERLGSLVAAEWRPEEGFVELKPPAGKFWQTMGFSEQGRQRLHPEEALYLLECGSIHLFHQDLPLSIQEAYQLLLTDHTVTFLQYQVFSHLKRLGYVVRRFQPSSVLSPYERQLNLDASVQHLEDGDGKRKRSSSSPRSINKKAKALDNSLQPKSLAASSPPPCSQPSQCPEEKPQESSPMKGPGGPFQLLGSLGPSPGPAREGVGCSWESGRAENGVTGAGKRRWNFEQISFPNMASDSRHTLLRAPAPELLPANVAGRETDAESWCQKLNQRKEKLSRREREHHAEAAQFQEDVNADPEVQRCSSWREYKELLQRRQVQRSQRRAPHLWGQPVTPLLSPGQASSPAVVLQHISVLQTTHLPDGGARLLEKSGGLEIIFDVYQADAVATFRKNNPGKPYARMCISGFDEPVPDLCSLKRLSYQSGDVPLIFALVDHGDISFYSFRDFTLPQDVGH
B4: TSEN54 A307S from insect cells (protein, UniProt Q7Z6J9 1-526)
chain: MEPEPEPAAVEVPAGRVLSARELFAARSRSQKLPQRSHGPKDFLPDGSAAQAERLRRCREELWQLLAEQRVERLGSLVAAEWRPEEGFVELKSPAGKFWQTMGFSEQGRQRLHPEEALYLLECGSIHLFHQDLPLSIQEAYQLLLTDHTVTFLQYQVFSHLKRLGYVVRRFQPSSVLSPYERQLNLDASVQHLEDGDGKRKRSSSSPRSINKKAKALDNSLQPKSLAASSPPPCSQPSQCPEEKPQESSPMKGPGGPFQLLGSLGPSPGPAREGVGCSWESGRAENGVTGAGKRRWNFEQISFPNMSSDSRHTLLRAPAPELLPANVAGRETDAESWCQKLNQRKEKLSRREREHHAEAAQFQEDVNADPEVQRCSSWREYKELLQRRQVQRSQRRAPHLWGQPVTPLLSPGQASSPAVVLQHISVLQTTHLPDGGARLLEKSGGLEIIFDVYQADAVATFRKNNPGKPYARMCISGFDEPVPDLCSLKRLSYQSGDVPLIFALVDHGDISFYSFRDFTLPQDVGH
B5: tRNA splicing endonuclease subunit TSEN2 (protein, UniProt Q8NCE0 1-465)
chain: MAEAVFHAPKRKRRVYETYESPLPIPFGQDHGPLKEFKIFRAEMINNNVIVRNAEDIEQLYGKGYFGKGILSRSRPSFTISDPKLVAKWKDMKTNMPIITSKRYQHSVEWAAELMRRQGQDESTVRRILKDYTKPLEHPPVKRNEEAQVHDKLNSGMVSNMEGTAGGERPSVVNGDSGKSGGVGDPREPLGCLQEGSGCHPTTESFEKSVREDASPLPHVCCCKQDALILQRGLHHEDGSQHIGLLHPGDRGPDHEYVLVEEAECAMSEREAAPNEELVQRNRLICRRNPYRIFEYLQLSLEEAFFLVYALGCLSIYYEKEPLTIVKLWKAFTVVQPTFRTTYMAYHYFRSKGWVPKVGLKYGTDLLLYRKGPPFYHASYSVIIELVDDHFEGSLRRPLSWKSLAALSRVSVNVSKELMLCYLIKPSTMTDKEMESPECMKRIKVQEVILSRWVSSRERSDQDDL
B6: TSEN2 co-expressed in HEK293 cells (protein, UniProt Q8NCE0 1-465)
chain: MAEAVFHAPKRKRRVYETYESPLPIPFGQDHGPLKEFKIFRAEMINNNVIVRNAEDIEQLYGKGYFGKGILSRSRPSFTISDPKLVAKWKDMKTNMPIITSKRYQHSVEWAAELMRRQGQDESTVRRILKDYTKPLEHPPVKRNEEAQVHDKLNSGMVSNMEGTAGGERPSVVNGDSGKSGGVGDPREPLGCLQEGSGCHPTTESFEKSVREDASPLPHVCCCKQDALILQRGLHHEDGSQHIGLLHPGDRGPDHEYVLVEEAECAMSEREAAPNEELVQRNRLICRRNPYRIFEYLQLSLEEAFFLVYALGCLSIYYEKEPLTIVKLWKAFTVVQPTFRTTYMAYHYFRSKGWVPKVGLKYGTDLLLYRKGPPFYHASYSVIIELVDDHFEGSLRRPLSWKSLAALSRVSVNVSKELMLCYLIKPSTMTDKEMESPECMKRIKVQEVILSRWVSSRERSDQDDL
B7: TSEN34 co-expressed in HEK293 cells (protein, UniProt Q9BSV6 1-310)
chain: MLVVEVANGRSLVWGAEAVQALRERLGVGGRTVGALPRGPRQNSRLGLPLLLMPEEARLLAEIGAVTLVSAPRPDSRHHSLALTSFKRQQEESFQEQSALAAEARETRRQELLEKITEGQAAKKQKLEQASGASSSQEAGSSQAAKEDETSDGQASGEQEEAGPSSSQAGPSNGVAPLPRSALLVQLATARPRPVKARPLDWRVQSKDWPHAGRPAHELRYSIYRDLWERGFFLSAAGKFGGDFLVYPGDPLRFHAHYIAQCWAPEDTIPLQDLVAAGRLGTSVRKTLLLCSPQPDGKVVYTSLQWASLQ
B8: TSEN2 Y309C co-expressed in HEK293 cells (protein, UniProt Q8NCE0 1-465)
chain: MAEAVFHAPKRKRRVYETYESPLPIPFGQDHGPLKEFKIFRAEMINNNVIVRNAEDIEQLYGKGYFGKGILSRSRPSFTISDPKLVAKWKDMKTNMPIITSKRYQHSVEWAAELMRRQGQDESTVRRILKDYTKPLEHPPVKRNEEAQVHDKLNSGMVSNMEGTAGGERPSVVNGDSGKSGGVGDPREPLGCLQEGSGCHPTTESFEKSVREDASPLPHVCCCKQDALILQRGLHHEDGSQHIGLLHPGDRGPDHEYVLVEEAECAMSEREAAPNEELVQRNRLICRRNPYRIFEYLQLSLEEAFFLVCALGCLSIYYEKEPLTIVKLWKAFTVVQPTFRTTYMAYHYFRSKGWVPKVGLKYGTDLLLYRKGPPFYHASYSVIIELVDDHFEGSLRRPLSWKSLAALSRVSVNVSKELMLCYLIKPSTMTDKEMESPECMKRIKVQEVILSRWVSSRERSDQDDL
B9: TSEN34 R58W co-expressed in HEK293 cells (protein, UniProt Q9BSV6 1-310)
chain: MLVVEVANGRSLVWGAEAVQALRERLGVGGRTVGALPRGPRQNSRLGLPLLLMPEEAWLLAEIGAVTLVSAPRPDSRHHSLALTSFKRQQEESFQEQSALAAEARETRRQELLEKITEGQAAKKQKLEQASGASSSQEAGSSQAAKEDETSDGQASGEQEEAGPSSSQAGPSNGVAPLPRSALLVQLATARPRPVKARPLDWRVQSKDWPHAGRPAHELRYSIYRDLWERGFFLSAAGKFGGDFLVYPGDPLRFHAHYIAQCWAPEDTIPLQDLVAAGRLGTSVRKTLLLCSPQPDGKVVYTSLQWASLQ
B10: TSEN54 S93P co-expressed in HEK293 cells (protein, UniProt Q7Z6J9 1-526)
chain: MEPEPEPAAVEVPAGRVLSARELFAARSRSQKLPQRSHGPKDFLPDGSAAQAERLRRCREELWQLLAEQRVERLGSLVAAEWRPEEGFVELKPPAGKFWQTMGFSEQGRQRLHPEEALYLLECGSIHLFHQDLPLSIQEAYQLLLTDHTVTFLQYQVFSHLKRLGYVVRRFQPSSVLSPYERQLNLDASVQHLEDGDGKRKRSSSSPRSINKKAKALDNSLQPKSLAASSPPPCSQPSQCPEEKPQESSPMKGPGGPFQLLGSLGPSPGPAREGVGCSWESGRAENGVTGAGKRRWNFEQISFPNMASDSRHTLLRAPAPELLPANVAGRETDAESWCQKLNQRKEKLSRREREHHAEAAQFQEDVNADPEVQRCSSWREYKELLQRRQVQRSQRRAPHLWGQPVTPLLSPGQASSPAVVLQHISVLQTTHLPDGGARLLEKSGGLEIIFDVYQADAVATFRKNNPGKPYARMCISGFDEPVPDLCSLKRLSYQSGDVPLIFALVDHGDISFYSFRDFTLPQDVGH
B11: TSEN54 A307S co-expressed in HEK293 cells (protein, UniProt Q7Z6J9 1-526)
chain: MEPEPEPAAVEVPAGRVLSARELFAARSRSQKLPQRSHGPKDFLPDGSAAQAERLRRCREELWQLLAEQRVERLGSLVAAEWRPEEGFVELKSPAGKFWQTMGFSEQGRQRLHPEEALYLLECGSIHLFHQDLPLSIQEAYQLLLTDHTVTFLQYQVFSHLKRLGYVVRRFQPSSVLSPYERQLNLDASVQHLEDGDGKRKRSSSSPRSINKKAKALDNSLQPKSLAASSPPPCSQPSQCPEEKPQESSPMKGPGGPFQLLGSLGPSPGPAREGVGCSWESGRAENGVTGAGKRRWNFEQISFPNMSSDSRHTLLRAPAPELLPANVAGRETDAESWCQKLNQRKEKLSRREREHHAEAAQFQEDVNADPEVQRCSSWREYKELLQRRQVQRSQRRAPHLWGQPVTPLLSPGQASSPAVVLQHISVLQTTHLPDGGARLLEKSGGLEIIFDVYQADAVATFRKNNPGKPYARMCISGFDEPVPDLCSLKRLSYQSGDVPLIFALVDHGDISFYSFRDFTLPQDVGH

The binders below were run against T1, tRNA splicing endonuclease subunit TSEN15 (human) (assay: co-expression and co-purification; combinatorial co-expression in Sf21 cells; Ni-NTA, heparin (left out for TSEN15–34), TEV cleavage, SEC on Superdex 200 Increase in 50 mM HEPES-NaOH pH 7.4, 400 mM NaCl; SDS-PAGE of purified complexes).

binding, binds:
B1
B2
B3
B4
B5

Each binder was assayed against T2, TSEN15 co-expressed in HEK293 cells (bait of the pull-down of Fig. 4a) (human) (assay: pull-down; wt and mutant TSEN complexes co-expressed in HEK293 cells; pull-down via TSEN15; immunoblot).

binding, binds:
B6
B7
B8
B9
B10
B11
